Results are given in words; binding and its absence hold for the method and conditions named. In cells and extracts the contact can be indirect. Tags and fused reporters may be left off the sequences shown.

Data on one molecule can be found in doi:10.1101/2020.06.11.144329.

This experiment concerns the target T1, IGLR-2∷mCherry (C. elegans) (UniProt P34595).
T1 sequence: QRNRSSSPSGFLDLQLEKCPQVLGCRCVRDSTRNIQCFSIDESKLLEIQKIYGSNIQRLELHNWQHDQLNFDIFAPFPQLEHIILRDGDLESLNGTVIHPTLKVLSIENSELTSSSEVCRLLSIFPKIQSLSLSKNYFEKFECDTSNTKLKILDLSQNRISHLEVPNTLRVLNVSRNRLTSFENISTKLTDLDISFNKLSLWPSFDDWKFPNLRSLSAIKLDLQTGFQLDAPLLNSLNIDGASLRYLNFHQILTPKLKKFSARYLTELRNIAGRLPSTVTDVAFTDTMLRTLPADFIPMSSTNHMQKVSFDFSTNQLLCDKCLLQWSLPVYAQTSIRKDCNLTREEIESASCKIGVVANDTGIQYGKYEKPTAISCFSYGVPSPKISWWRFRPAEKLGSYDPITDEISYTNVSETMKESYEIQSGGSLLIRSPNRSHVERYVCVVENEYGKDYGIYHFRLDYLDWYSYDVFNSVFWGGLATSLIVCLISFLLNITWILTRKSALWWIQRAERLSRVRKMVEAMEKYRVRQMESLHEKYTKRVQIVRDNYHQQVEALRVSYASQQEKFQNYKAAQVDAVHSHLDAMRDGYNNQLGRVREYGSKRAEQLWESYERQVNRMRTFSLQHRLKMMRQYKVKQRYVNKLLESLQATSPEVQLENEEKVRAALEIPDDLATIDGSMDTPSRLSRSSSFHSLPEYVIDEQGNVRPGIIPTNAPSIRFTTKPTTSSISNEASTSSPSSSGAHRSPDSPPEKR
In words: FRET or BRET.

B1: PAQR-1∷GFP (receptor, UniProt Q94177 1-434)
chain: MNPDEVNRALGHYLNDADSGELVVEDSTTVQVKNPEARKTGDKIEVFYSRKTTVVSPTNSDDEDADFCSDSELLPQQEGHRSRATSFAGRIRAGSDDEAMPKHTILRYRRKKGGQWREINLQGTPDKRKDDEDELEVDVKEDRSEQTGIVTKTYEARWKVLKYEHLPEWLQDNEFLRHGHRPPLPSFSECFKSIWSLHTETGNIWTHLIGCVAFFFLACWFLTRPDNHIQFQEKVVFSFFFAGAVLCLGLSFAFHTLSCHSVNVVKIFCKLDYMGISLLIIGSFIPWIYYGFYCRREPKITYIAMVSVLGIGAIVVSLWDKFSESRFRPIRAAVFVGMGCSGVIPTIHYIITDGVHSLFADNSFHWLLLMAFLYLLGAGLYATRTPERFFPGKCDIWFQSHQLFHTCVVIAAFVHYYGISEMAFARLNEQCPVR
Take B1: the binding entry is recorded as “no binding”.
